Measurements published in PubChem BioAssay AID504467 (National Center for Advancing Translational Sciences (NCATS), 2011).
Screen size: about 330,000 compounds; about 7,700 (2.3%) were called active. This list was built around the results that the source calls inconclusive (neither active nor inactive); the mix of calls is not that of the screen. The call rests on the fitted dose curve; in most records, active means well fitted inhibition curve with a large enough effect; inconclusive means small, poorly fitted or top-dose-only effect, or effect the other way; inactive means flat fitted curve, though single readings scatter. A potency beside an inconclusive call is a rough fit, not a confirmed value.

experiment: qHTS screen for small molecules that inhibit ELG1-dependent DNA repair in human embryonic kidney (HEK293T) cells expressing luciferase-tagged ELG1; conditions: HEK293T ELG1-luciferase reporter, luminescence, 16 h, DNA damage induced by 5-fluorouridine; activity change, negative = inhibition: at 46.1 µM (top of the series); further: nearly all actives have a fitted effect of over 55% in size
How it was run: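 Luminescence from the luciferase reporter, measured 30 min after ONE-Glo reagent at room temperature, was the read-out. Beforehand, 2,000 cells per well were exposed for 16 hr at 37 °C to 5-fluorouridine together with compound or vehicle.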
On the % scale 0 is the no-effect control and ±100 the full control effect; potency means the concentration at half of the fitted maximal effect.

| Structure (SMILES) | activity change, negative = inhibition | Potency |
| --- | --- | --- |
| C=CCNC(=S)/C(=C(/[O-])c1ccccc1Br)[n+]1ccccc1 | inactive: 5.12% | – |
| COc1ccc(C(=O)Nc2cccc(/C(C)=N\NC(=O)c3ccoc3C)c2)cc1OC | – | inconclusive: 4.11 µM [inhibitor, partial curve] |
| CCOC(=O)c1cnc2ccc(OCC)cc2c1NCCN1CCOCC1 | inactive: 19.8% | – |
| COc1ccnc(Oc2ccc(F)cc2)c1C(=O)N/C=N/OCc1ccc(F)cc1Cl | – | inconclusive: 29.1 µM [inhibitor, single point] |
| O=C(COc1ccc([N+](=O)[O-])cc1)Nc1ccc(N2CCN(C(=O)c3ccco3)CC2)cc1 | inactive: 26.1% | – |
| CC(=O)c1ccc(N=Nc2ccc(N)cc2)cc1 | – | inconclusive: 1.03 µM [activator, partial curve] |
| CC(C)n1nnnc1SCC(=O)NCc1cccs1 | – | inconclusive: 32.6 µM [activator, partial curve, poor fit] |
| COc1ccc(/C=C/C(=O)O)cc1S(=O)(=O)NCc1ccco1 | – | inconclusive: 6.51 µM [inhibitor, single point] |
| O=C(NCc1ccccc1F)c1ccc2ccccc2n1 | inactive: 15.4% | – |
| Cc1cccc(NC(=O)c2cnn(-c3ccccc3)c2C)c1C | – | inconclusive: 10 µM [activator, partial curve, poor fit] |
| O=C(CCl)N1c2ccccc2CCc2ccccc21 | – | inconclusive: 18.3 µM [inhibitor, partial curve] |
| Cn1c(=O)[nH]c(=O)c2c1nc(CN1CCOCC1)n2CCCc1ccccc1 | inactive: -0.8% | – |
| COc1ccc(N2C(=O)C3CCCN3C2c2cc(OC)c(OC)c(OC)c2)cc1 (stereo not drawn) | inactive: 14.7% | – |
| CCCCC(=O)Nc1nc(C)c(-c2csc(Nc3cc(OC)ccc3OC)n2)s1 | – | active: 18.4 µM |
| CCNc1ccc(C(=O)Nc2ccc3nc(C)sc3c2)cc1[N+](=O)[O-] | – | inconclusive: 29.1 µM [inhibitor, single point] |
| COc1cccc(Nc2nnc(SCC3CCCCO3)s2)c1 (stereo not drawn) | – | inconclusive: 13 µM [activator, partial curve] |
| O=C(O)COn1c(-c2ccccc2)nc2ccc([N+](=O)[O-])cc21 | – | inconclusive: 20.6 µM [activator, partial curve] |
| CCC1Cc2c(nc(N)c3c(N)nc(N4CCCCC4)c(C#N)c23)O1 (stereo not drawn) | – | inconclusive: 23.1 µM [inhibitor, single point] |
| Cc1oc(-c2ccccc2)cc1C(N)=O | – | inconclusive: 16.4 µM [activator, single point] |
| C#CCSc1nc(-c2cccs2)ccc1C#N | inactive: -19.5% | – |
| CC(C)C(NS(=O)(=O)c1cccc2nsnc12)C(=O)Nc1nccs1 (stereo not drawn) | inactive: 23.2% | – |
| CCN(CC(=O)Nc1c(F)cccc1F)C(=O)c1cc([N+](=O)[O-])ccc1N1CCCCC1 | inactive: -11.1% | – |
| COc1ccc(-c2csc3ncnc(N4CCN(c5ccccc5Cl)CC4)c23)cc1 | – | active: 13 µM |
| O=C(OCc1ccccn1)c1ccc(COc2ccc3ccccc3c2)o1 | – | inconclusive: 3.66 µM [activator, full curve] |
| O=C(COc1ccccc1[N+](=O)[O-])NC1CC1 | – | inconclusive: 18.3 µM [activator, single point] |

Given with each value named: part of the list above.
Cc1cccc(NC(=O)c2cnn(-c3ccccc3)c2C)c1C
  Potency: inconclusive: 10 µM [activator, partial curve, poor fit]
O=C(CCl)N1c2ccccc2CCc2ccccc21
  Potency: inconclusive: 18.3 µM [inhibitor, partial curve]
Cn1c(=O)[nH]c(=O)c2c1nc(CN1CCOCC1)n2CCCc1ccccc1
  activity change, negative = inhibition: inactive: -0.8%

The listing continues:

| Structure (SMILES) | activity change, negative = inhibition | Potency |
| --- | --- | --- |
| O=C(NC1CCCCCC1)c1c2c(nc3ccccc13)CCN(Cc1ccccc1)C2 | – | inconclusive: 23.1 µM [inhibitor, single point] |
| Clc1ccc(CN2C3=NCCCN3c3ccccc32)c(Cl)c1 | inactive: -13.9% | – |
| Cc1ccc2nc(NCc3ccccc3)[nH]c2c1 | – | inconclusive: 23.1 µM [activator, partial curve] |
| Cc1ccc(S(=O)(=O)N(C)c2ccc(C(=O)N3CCCCC3)cc2)cc1 | – | inconclusive: 23.1 µM [inhibitor, partial curve] |
| COc1ccc(-c2nonc2NC(=O)c2oc3ccccc3c2C)cc1OC | – | inconclusive: 18.3 µM [inhibitor, single point] |
| COc1ccccc1NC(=O)c1ccc(NC(=O)CN(C)Cc2ccccc2F)cc1 | – | inconclusive: 29.1 µM [inhibitor, partial curve, poor fit] |
| COc1ccccc1NCC(=O)NNC(C)C(=O)Nc1cccc(Cl)c1 (stereo not drawn) | inactive: -0.0633% | – |
| Cc1ccc(NC(=O)C2CC(=O)n3c(nc4ccccc43)N2)cc1C (stereo not drawn) | – | inconclusive: 29.1 µM [activator, single point] |
| O=C(N/N=C/c1ccc2c(c1)OCO2)/C(=C/c1ccc2c(c1)OCO2)NC(=O)c1ccccc1 | inactive: -9.61% | – |
| COc1ccc(N2C(=O)[C@@H]3[C@H](C2=O)[C@H](C(C)=O)N2c4ccccc4C=C[C@@H]32)cc1 | – | inconclusive: 18.3 µM [inhibitor, single point] |
| O=C(NNC(=O)C1CC1)c1ccc(F)cc1F | inactive: 15.5% | – |
| CN(C)S(=O)(=O)c1ccc(C(=O)OCC(=O)Nc2ccc3c(c2)OCO3)cc1 | – | inconclusive: 32.6 µM [activator, partial curve, poor fit] |
| CC(=O)c1cn(C)c(=O)c2ccccc12 | – | inconclusive: 18.3 µM [activator, partial curve] |
| O=C(Nc1ccc(S(=O)(=O)Nc2ncccn2)cc1)c1ccc(Br)o1 | inactive: -7.79% | – |
| Cc1cc(C)n(-c2ccc(C(=O)N3CC(C)OC(C)C3)cc2)n1 (stereo not drawn) | inactive: -6.83% | – |
| COc1cc([N+](=O)[O-])cc(/C=N/NC(=O)c2ccc(NC(=O)c3ccc(C)cc3)cc2)c1O | – | inconclusive: 6.51 µM [inhibitor, single point] |
| N=C(N=C(N)N)N1CCc2ccccc21 | inactive: 2.44% | – |
| COc1ccc(NC2=C(NC(C)=O)C(=O)c3ccccc3C2=O)cc1 | inactive: -20.7% | – |
| CCNC(=S)N(CCc1cccc(C)c1)Cc1cc2cc(OC)c(OC)cc2[nH]c1=O | – | active: 8.2 µM |
| COc1ccccc1Oc1ccc2c(c1)C(=O)N(c1cccc3ncccc13)C2=O | inactive: 3.42% | – |
| Oc1c(C=C2N=c3ccccc3=N2)sc(=S)n1-c1ccc2ccccc2c1 | – | inconclusive: 5.17 µM [inhibitor, partial curve, poor fit] |
| CCOc1ccccc1N1CCN(CC(=O)Nc2ccccc2C(=O)NC2CC2)CC1 | – | inconclusive: 25.9 µM [inhibitor, single point] |
| Cn1ccnc1SCC(=O)N1CCc2ccccc21 | – | inconclusive: 13 µM [activator, partial curve] |
| COc1ccc(C)cc1NC(=O)CCCN1C(=O)C(c2ccccc2)Oc2cccnc21 (stereo not drawn) | – | inconclusive: 18.3 µM [inhibitor, partial curve] |
| CCc1ccc(NC(=O)CC2C(=O)NCCN2C(=O)c2ccccc2OC)cc1 (stereo not drawn) | – | inconclusive: 0.146 µM [inhibitor, partial curve, poor fit] |

| Structure (SMILES) | activity change, negative = inhibition | Potency |
| --- | --- | --- |
| Cc1ccc(C(=O)N/C(=C/c2ccco2)C(=O)Nc2cccc(C)c2)cc1 | inactive: 3.06% | – |
| COc1ccc(N2CCN(C(=O)CN3c4cccc5cccc(c45)S3(=O)=O)CC2)cc1 | – | inconclusive: 25.9 µM [inhibitor, single point] |
| O=C(CCl)Nc1cccc2ncccc12 | – | active: 25.9 µM |
| COc1ccc(OC)c(CNc2ccc3c(c2)nc(C)n3C)c1 | inactive: 22.5% | – |
| COc1ccc(NC(=O)CN2CCN(c3nc(-c4cccc(OC)c4)cs3)CC2)cc1 | – | active: 11.6 µM |
| O=C(OCC(=O)N1CCC(Cc2ccccc2)CC1)c1ccccc1F | – | inconclusive: 29.1 µM [activator, single point] |
| C=CCN1c2ccccc2[C@]23C[C@@H](C(=O)OC)N(C(C)=O)C2=NC(C(=O)OC)=C(C(=O)OC)[C@H]13 | inactive: 26.6% | – |
| COc1cccc2c(=O)ccoc12 | – | inconclusive: 18.4 µM [activator, single point] |
| Cc1ccc(S(=O)(=O)NCC(=O)N(CC(=O)NC2CCCC2)CC2CCCO2)cc1 (stereo not drawn) | inactive: -7.1% | – |
| S=C(NCCc1cccc(Cl)c1)NC1CCCCC1 | – | inconclusive: 11.6 µM [activator, partial curve] |
| Cc1ccc(NC(=O)c2ccc(-n3cncn3)c([N+](=O)[O-])c2)cc1F | inactive: -4.54% | – |
| Cc1nc(SCC(=O)N2CC(=O)Nc3ccccc32)nc(C)c1C | inactive: 3.32% | – |
| O=C(CN(Cc1ccc(F)cc1)C(=O)CNS(=O)(=O)c1ccccc1)NCC1CCCO1 (stereo not drawn) | – | inconclusive: 18.3 µM [activator, single point] |
| CC(=O)Nc1ccc(S(=O)(=O)NC(C)c2ccccc2)cc1 (stereo not drawn) | inactive: -4.85% | – |
| O=C(c1ccc2c(c1)OCCCO2)c1cccs1 | – | inconclusive: 5.01 µM [activator, partial curve] |
| CCN(C(=O)CSc1nc2ccccc2n1CCc1ccccc1)C1CCS(=O)(=O)C1 (stereo not drawn) | – | inconclusive: 25.9 µM [inhibitor, single point] |
| CC(C)=NNc1nc2c(c(=O)[nH]c(=O)n2C)n1CCCc1ccccc1 | – | inconclusive: 18.3 µM [inhibitor, partial curve, poor fit] |
| Cc1cc(C)nc(N/N=C/c2cc(Br)ccc2O)n1 | – | inconclusive: 8.2 µM [inhibitor, partial curve, poor fit] |
| Cc1cccc(-c2n[nH]c(=S)n2-c2ccccc2)c1[N+](=O)[O-] | – | inconclusive: 18.4 µM [activator, partial curve, poor fit] |
| COc1cccc(NC(=O)c2ccccc2Br)c1 | – | inconclusive: 22.4 µM [activator, partial curve, poor fit] |
| CCOC(=O)Cc1csc(NC(=O)COc2ccc(N(C)S(=O)(=O)c3ccc(C)cc3)cc2)n1 | – | active: 18.4 µM |
| Cc1ccc(S(=O)(=O)N2CCCCC2)cc1NC(=O)CSc1nnc(C2CC2)n1C | inactive: 11.5% | – |
| C=CCn1c(SCC(C)=O)nc2scc(-c3ccc(C)o3)c2c1=O | – | inconclusive: 20.6 µM [activator, partial curve] |
